PubChem BioAssay AID652259, Drosophila RNAi Screening Center | 2013

Test: 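Knock-downs that push a Wingless-driven reporter up or down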 (primary screen)
Cell system: Drosophila clone 8 imaginal disc epithelial cells
Reagent: long dsRNA against Drosophila genes
Challenge: pathway stimulated by co-transfected Wingless expression plasmid
Detection: 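Firefly luciferase from a tcf-site Wingless reporter, measured alongside co-transfected Renilla luciferase that tracks transfection; pathway stimulated by a Wingless plasmid; the firefly-to-Renilla ratio is not deposited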
Direction: firefly reporter light: higher = more Wg reporter light, before normalisation; Renilla control light: higher = more transfected or surviving cells
Rule for the call: 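Strong candidates differ from their plate mean by at least two out of four per-plate statistical tests; weak candidates meet just one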
Calls: active = candidate regulator (raises or lowers reporter); inactive = not a candidate
The deposit covers about 22,000 reagents; this is an unselected part of those with a known target gene and a result. In the full data, 233 (1.1%) got an active call. 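Light values are raw, unnormalised plate reads; the ratio scores behind the reporter calls were not deposited.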 No sequences are given here. The record does not give: the amount of reagent, the time to read-out, the dose of the treatment.

The first 3 entries, to show the layout:
no.	predicted target	dsRNA	reporter change call, replicate 1	firefly reporter light, replicate 1	firefly reporter light, replicate 2	Renilla control light, replicate 1	Renilla control light, replicate 2	call
1	Pex11c	DRSC14677		19005		19584		inactive
2	CG12106	DRSC17805		3184	3272	908	1412	inactive
3	hmw	DRSC16277		3417	5620	1297	1672	inactive

The listing, from the first entry:
no.	predicted target	dsRNA	reporter change call, replicate 1	firefly reporter light, replicate 1	firefly reporter light, replicate 2	Renilla control light, replicate 1	Renilla control light, replicate 2	call
1	Pex11c	DRSC14677		19005		19584		inactive
2	CG12106	DRSC17805		3184	3272	908	1412	inactive
3	hmw	DRSC16277		3417	5620	1297	1672	inactive
4	step	DRSC03694		2215	6439	789	2775	inactive
5	step	DRSC03699		2907	10498	1146	4519	inactive
6	Ube3a	DRSC10600		2936		1428		inactive
7	CG32437	DRSC11760		19898		6433		inactive
8	CG32437	DRSC22020		7.99e5	8.45e5	3.43e5	4.28e5	inactive
9	Ipp	DRSC16718		16505		1777		inactive
10	CG10752	DRSC09799		2811		1832		inactive
11	CG10950	DRSC06020		4680		2341		inactive
12	CG2577	DRSC19863	Wg reporter activity raised	57717		7579		active
13	CG30403	DRSC03889		4720	3018	1106	976	inactive
14	CG42331	DRSC14633		4073		1175		inactive
15	CG42331	DRSC16126		26076		18961		inactive
16	PSMG1	DRSC12297		5942		1952		inactive
17	RhoGAP54D	DRSC06990		5561		1507		inactive
18	Mo25	DRSC11224		4388		1547		inactive
19	zfh1	DRSC14014		4033	6.51e5	1360	2.90e5	inactive
20	zfh1	DRSC17098		2448	6474	770	1632	inactive
21	Arc2	DRSC06436		3091		1297		inactive
22	anne	DRSC17103		3344		1501		inactive
23	CG18536	DRSC06763		6358		2578		inactive
24	Gr2a	DRSC18603		22349		19147		inactive
25	bru2	DRSC01246		21461		11834		inactive
26	bru2	DRSC01247		21837		7816		inactive
27	bru2	DRSC01249		18189		10845		inactive
28	bru2	DRSC01250		34617		11867		inactive
29	bru2	DRSC02557	Wg reporter activity raised	3882	9082	416	1265	active
